Assay results published in PubChem BioAssay AID743255 (National Center for Advancing Translational Sciences (NCATS), 2014).
About 910 (0.23%) of roughly 390,000 compounds were called active. Inconclusive results, whose numbers are uncertain, are shown with a selection of clear calls. The call rests on the fitted dose curve; in most records, active means well fitted inhibition curve with a large enough effect; inconclusive means small, poorly fitted or top-dose-only effect; inactive means no such curve, though single readings can be large or run the other way. Potencies beside an inconclusive call are fits to weak or partial responses and may not hold up.

Amino acid sequences for entries named in this document (tags omitted). A change or cut given only in a name is not applied to a line headed by its entry.
UniProt O94782: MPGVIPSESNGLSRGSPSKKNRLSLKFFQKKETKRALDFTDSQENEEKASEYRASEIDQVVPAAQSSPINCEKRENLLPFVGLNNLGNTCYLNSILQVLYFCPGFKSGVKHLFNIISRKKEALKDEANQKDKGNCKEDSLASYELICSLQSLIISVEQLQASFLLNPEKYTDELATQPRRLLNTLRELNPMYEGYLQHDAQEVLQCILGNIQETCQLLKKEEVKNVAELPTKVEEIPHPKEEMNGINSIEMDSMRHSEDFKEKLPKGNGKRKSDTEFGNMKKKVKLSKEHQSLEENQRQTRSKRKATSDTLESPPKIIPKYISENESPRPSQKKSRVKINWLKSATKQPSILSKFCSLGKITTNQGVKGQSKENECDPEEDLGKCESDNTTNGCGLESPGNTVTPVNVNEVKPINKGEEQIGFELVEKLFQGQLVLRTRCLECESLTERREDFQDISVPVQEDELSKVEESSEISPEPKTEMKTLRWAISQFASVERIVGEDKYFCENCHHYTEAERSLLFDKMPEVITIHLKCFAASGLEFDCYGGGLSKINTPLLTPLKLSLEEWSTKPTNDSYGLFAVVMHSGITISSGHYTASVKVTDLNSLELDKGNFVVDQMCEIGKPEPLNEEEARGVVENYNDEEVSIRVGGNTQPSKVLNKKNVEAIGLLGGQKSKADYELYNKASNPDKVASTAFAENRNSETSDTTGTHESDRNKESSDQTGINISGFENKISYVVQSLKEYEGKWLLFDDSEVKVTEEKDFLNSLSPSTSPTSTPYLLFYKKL

biological target: Ubiquitin carboxyl-terminal hydrolase 1 (Homo sapiens) (UniProt O94782); assay: Inhibitors of USP1/UAF1: Primary Screen; details: recombinant USP1/UAF1, Ub-Rhodamine cleavage fluorescence; activity change, negative = inhibition: at 57.1 µM (top of the series); further: nearly all actives have a fitted effect of over 60% in size
Summary of the method: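 In this screen, compounds sit with the deubiquitinase complex (1nM) for 15 min at room temperature before Ub-Rho is added at 150nM final. Fluorescence rise is then followed for 6 reads every 60 seconds.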
On the % scale 0 is the no-effect control and ±100 the full control effect; potency means the concentration at half of the fitted maximal effect.

Row | SMILES | Potency | activity change, negative = inhibition
1 | O=C(CC1C(=O)OCN1C(=O)OCc1ccccc1)OCC(=O)c1ccccc1 (stereo not given) | inconclusive: 39.8 µM [inhibitor, partial curve, poor fit] | –
2 | C(=N\NC1=Nc2cccc3cccc1c23)/c1ccccn1 | inconclusive: 44.7 µM [inhibitor, partial curve] | –
3 | CC1CCCN(c2cc3c(cc2F)c(=O)c(S(=O)(=O)c2cccc(Cl)c2)cn3Cc2ccccc2)C1 (stereo not given) | inconclusive: 10 µM [inhibitor, partial curve, poor fit] | –
4 | CCOC(=O)C1CCN(C(=O)COC(=O)c2ccc([N+](=O)[O-])o2)CC1 | inconclusive: 56.2 µM [inhibitor, partial curve, poor fit] | –
5 | C=C1C(=O)O[C@@H]2[C@H]1[C@@H](OC(=O)/C(C)=C/C)C/C(C)=C\C(=O)/C=C(\C)[C@@H]2O | inconclusive: 0.355 µM [inhibitor, full curve, poor fit] | –
6 | COc1ccc2c(n1)Sc1nc3ccccc3nc1N2 | inconclusive: 39.8 µM [inhibitor, single point] | –
7 | C/C(=N\OC(=O)c1ccc(C)cc1)c1c(C)nc2cc(C)ccn12 | inactive | –
8 | CCC(C(=O)Nc1cc(C)ccc1C)n1c(=O)c(C(F)(F)F)nc2ccccc21 (stereo not given) | inactive | –
9 | COc1cc(/C=C2\SC(=S)N(CCC(=O)Nc3ccccn3)C2=O)cc(OC)c1OC | inconclusive: 70.8 µM [inhibitor, partial curve, poor fit] | –
10 | Cc1c(C(=O)Nc2cccc(C(F)(F)F)c2)sc2nc[nH]c(=O)c12 | inconclusive: 112 µM [inhibitor, partial curve, poor fit] | –
11 | COc1cccc(/C=C2\SC(=S)N(NS(=O)(=O)c3ccccc3)C2=O)c1OC | inactive | –
12 | CN(C(=O)c1ccc(NC(=O)Cc2cccc(NC(=O)C3CCN(C(=O)C4CC4)CC3)c2)cc1)C1CCCC1 | inconclusive: 3.16 µM [inhibitor, full curve, poor fit] | –
13 | O=C(NCc1ccco1)/C(=C\C=C\c1ccccc1)NC(=O)c1ccco1 | inconclusive: 22.4 µM [inhibitor, partial curve] | –
14 | Cc1cc(NC(=O)CSc2nnc(-c3ccccc3)c(-c3ccccc3)n2)no1 | inactive | –
15 | C#CCOCCOCCOCCNc1nc(N2CCN(C(=O)CCCCCCCCCCNC(=O)[C@@H](CCSC)n3cc(CCO)nn3)CC2)nc(N2CCN(C(=O)CCCCCCCCCCNC(=O)[C@H](CCCN=C(N)N)n3cc(C[C@@H](C)CC)nn3)CC2)n1 | inconclusive: 39.8 µM [inhibitor, partial curve] | –
16 | N#C/C(C(=O)N1CCCCC1)=C1\Nc2ccccc2S1 | inactive | –
17 | C=CCSC1=N/C(=C\c2sccc2C)C(=O)S1 | inconclusive: 39.8 µM [inhibitor, partial curve, poor fit] | –
18 | CC(C)c1ccc(NC(=O)Cn2c(=O)n(CC3CCC(C(=O)NCCc4ccccc4)CC3)c(=O)c3ccccc32)cc1 (stereo not given) | inactive | –
19 | CCn1c(CNS(=O)(=O)c2ccc(Cl)cc2)n[nH]c1=S | inconclusive: 0.631 µM [inhibitor, partial curve, poor fit] | –
20 | Clc1ccc(-c2ccc(C=Nc3ccc(N4CCOCC4)cc3)o2)cc1 | inconclusive: 39.8 µM [inhibitor, partial curve, poor fit] | –

Exported field by field: 2 of the compounds above
CC1CCCN(c2cc3c(cc2F)c(=O)c(S(=O)(=O)c2cccc(Cl)c2)cn3Cc2ccccc2)C1 (stereo not given)
  Potency: inconclusive: 10 µM [inhibitor, partial curve, poor fit]
N#C/C(C(=O)N1CCCCC1)=C1\Nc2ccccc2S1
  Potency: inactive

More entries follow:

Row | SMILES | Potency | activity change, negative = inhibition
21 | Cc1csc(NC(=O)c2cc(C)nc3ccccc23)n1 | inconclusive: 39.8 µM [inhibitor, partial curve, poor fit] | –
22 | Cc1cccc(C(C)C)c1NC(=O)Cn1c(=O)oc2cc(S(=O)(=O)N3CCCC3)ccc21 | inactive | –
23 | C=CCCN(C1CCCC1)S(=O)(=O)c1ccccc1Br | inconclusive: 50.1 µM [inhibitor, partial curve, poor fit] | –
24 | CC1(C)O[C@@H]2[C@H](O1)[C@@H](COS(=O)(=O)O)O[C@H]2n1c(=S)[nH]c2c(=O)[nH]c(N)nc21 | inconclusive: 10 µM [inhibitor, partial curve, poor fit] | –
25 | COc1ccccc1N1CCN(C(=O)c2cc(CC(C)C)on2)CC1 | inconclusive: 7.94 µM [inhibitor, full curve, poor fit] | –
26 | CCN(C1CCCCC1)S(=O)(=O)c1cc(C)ccc1OC | inconclusive: 50.1 µM [inhibitor, partial curve] | –
27 | CC(C)(C)OC(=O)C[C@@H]1C/C=C\C[C@H](CC(=O)N(CCO)Cc2ccccc2)C(=O)N[C@H](Cc2ccccc2)COC1=O | inconclusive: 3.55 µM [inhibitor, full curve, poor fit] | –
28 | COc1ccc(N2CCN(C(=O)C3CCN(C(=O)c4ccccc4Cl)CC3)CC2)cc1 | inconclusive: 10 µM [inhibitor, partial curve, poor fit] | –
29 | COc1cc(Nc2nc(SCc3ccc(Cl)cc3)nc3ccccc23)cc(OC)c1 | inconclusive: 50.1 µM [inhibitor, partial curve, poor fit] | –
30 | COc1ccc(-c2oc3ncn4nc(COc5cccc(C)c5C)nc4c3c2-c2ccc(OC)cc2)cc1 | inactive | –
31 | CCOC(=O)c1c(-c2ccc(C)cc2)csc1NC(=O)c1cc(=O)c2cc(C)ccc2o1 | inconclusive: 126 µM [inhibitor, partial curve] | –
32 | Cc1ccc2c(c1)C(=O)CC(c1ccccc1)S2 (stereo not given) | inconclusive: 35.5 µM [inhibitor, single point] | –
33 | O=C1c2oc3ccccc3c(=O)c2C(c2cccc(O)c2)N1c1nncs1 (stereo not given) | inconclusive: 28.2 µM [inhibitor, single point] | –
34 | COc1ccc([C@@H]2[C@@H]3C(=O)N(C(C)(C)C)C(=O)[C@@H]3[C@]3(Cc4ccccc4)C(=O)N(c4ccccc4)C(=O)N23)cc1 | inconclusive: 70.8 µM [inhibitor, partial curve, poor fit] | –
35 | CSc1ccc(/C=C/C(=O)NC(=O)c2ccccc2O)cc1 | – | inconclusive: -28.2% [inhibitor]
36 | N=c1n(CC(=O)c2ccc([N+](=O)[O-])cc2)c2ccccc2n1Cc1ccccc1Cl | inactive | –
37 | CN(C)c1cccc(C(=O)N2CCC(c3c[nH]c4ccccc34)(c3c[nH]c4ccccc34)CC2)c1 | inconclusive: 44.7 µM [inhibitor, partial curve] | –
38 | COc1nccnc1NS(=O)(=O)c1ccc(NC(=S)NC(=O)/C=C/c2ccccc2)cc1 | inactive | –
39 | CCC(C(=O)NCc1cc(OC)ccc1OC)n1nc(C)c2sc3ccccc3c2c1=O (stereo not given) | inactive | –
40 | CCCCN(CC)Cc1ccc(CNC(=O)Nc2ccc(OCC)cc2)o1 | inactive | –

Row | SMILES | Potency | activity change, negative = inhibition
41 | C#Cc1ccc([C@@H]2C=C(C(=O)NCc3ccccc3)O[C@H](OCc3ccc(CO)cc3)C2)cc1 | inconclusive: 28.2 µM [inhibitor, partial curve] | –
42 | CCOc1ccc(S(=O)(=O)N2CCN(c3cccc(C(F)(F)F)c3)CC2)cc1OCC | inconclusive: 10 µM [inhibitor, single point] | –
43 | Cc1ccccc1OCc1nnc2n1CC(C)S2 (stereo not given) | inconclusive: 35.5 µM [inhibitor, partial curve] | –
44 | Cc1ccc(NC(=O)c2oc3ccccc3c2NC(=O)Cc2ccccc2)cc1 | inconclusive: 15.8 µM [inhibitor, partial curve, poor fit] | –
45 | CCCOc1c(Cl)cc(C(=O)NC)cc1OC | inactive | –
46 | COc1ccccc1-c1nnc(C2CCN(C(=O)c3cccc(C)c3)CC2)o1 | inconclusive: 0.126 µM [inhibitor, full curve, poor fit] | –
47 | C=CCC(CC=C)(CNC(=O)C(=O)Nc1ccc(C)cc1)c1ccccc1 | inconclusive: 31.6 µM [inhibitor, partial curve, poor fit] | –
48 | COc1cccc(Cn2c(=O)n(-c3cccc(Cl)c3)c(=O)c3c4c(sc32)CN(C(C)=O)CC4)c1 | inconclusive: 39.8 µM [inhibitor, partial curve, poor fit] | –
49 | COC(=O)c1cccc2c1NC(=O)C2=O | inconclusive: 28.2 µM [inhibitor, partial curve] | –
50 | CCOC(=O)N1CCc2c(sc3c2c(=O)n(Cc2ccccc2)c(=O)n3Cc2cccc(C)c2)C1 | inconclusive: 44.7 µM [inhibitor, partial curve, poor fit] | –
51 | O=C(NC1CCN(C(=O)NC2CCCCC2)CC1)c1ccco1 | inactive | –
52 | Cc1ccc(N=Nc2c(O)[nH]c3ccc(F)cc23)cc1 | inconclusive: 6.31 µM [inhibitor, single point] | –
53 | CC1CN(C(=O)c2ccc(COc3ccc4ccccc4c3)o2)CC(C)O1 (stereo not given) | inconclusive: 22.4 µM [inhibitor, partial curve] | –
54 | CCOc1cc(C(=O)OCC(=O)c2cc(C)n(CC3CCCO3)c2C)ccc1OCC(=O)N1CCOCC1 (stereo not given) | inactive | –
55 | Nc1nc2c(s1)CCc1c-2cnn1-c1ccccc1 | inconclusive: 25.1 µM [inhibitor, partial curve] | –
56 | CC(=O)C1=C(c2ccccc2)N(C(C)=O)n2c(nnc2C2CCCCC2)S1 | inconclusive: 39.8 µM [inhibitor, partial curve, poor fit] | –
57 | C=CCN(Cc1nc(-c2ccc(OC)c(OC)c2)oc1C)C1CCS(=O)(=O)C1 (stereo not given) | inconclusive: 2 µM [inhibitor, full curve, poor fit] | –
58 | Clc1ccc(OCc2nnc3n2N=C(c2ccc4c(c2)OCCO4)CS3)c(Cl)c1 | inconclusive: 44.7 µM [inhibitor, partial curve] | –
59 | CNCCc1ccccn1 | inconclusive: 35.5 µM [inhibitor, partial curve, poor fit] | –
60 | COc1cc(OC)cc(C(=O)Nc2cc3c(cc2N2CCOCC2)n(C)c(=O)n3C)c1 | inconclusive: 4.47 µM [inhibitor, full curve, poor fit] | –
